Laboratory results from US20070031511A1, “Method of treatment” (priority 2003, published 2007).

Test: Quenching of peptide tryptophan fluorescence by ferric ions (stoichiometry, apparent Kd)
Type: binding
Details: 10 mM sodium acetate pH 4.0, 100 mM NaCl, 0.005% Tween 20; mean ± S.E.
Method: The tryptophan fluorescence of peptide solutions was measured in 3 mL quartz cuvettes thermostated at […], with a Spex Fluorolog-2 spectrofluorimeter (Spex Industries, Edison, N.J.), with the excitation and emission wavelengths set at 290 and 345 nm, respectively. The quenching of tryptophan fluorescence induced by the binding of metal ions was used to calculate the fraction of binding sites occupied, fa: fa=(yf−y)/(yf−yb) where y is the fluorescence signal at a given concentration of metal ions and yb and yf are the signals when the binding sites are fully occupied and unoccupied, respectively (Winzor et al, 1995). […]
The tryptophan fluorescence of progastrin6-80, glycine-extended gastrin17 and related peptides was measured in the presence of increasing concentrations of ferric ions in 10 mM sodium acetate, pH 4.0, 100 mM NaCl, 0.005% Tween 20. […]
The tryptophan fluorescence of amidated gastrin17 and related peptides was measured in the presence of increasing concentrations of ferric ions at pH 4.0 (8). […]

B1: Progastrin: recombinant human progastrin6-80 (protein, listed as Homo sapiens)
chain: SQQPDAPLGTGANRDLELPWLEQQGPASHHRRQLGPQGPPHLVADPSKKQGPWLEEEEEAYGWMDFGRRSAEDEN
- Stoichiometry of ferric ion binding: 2.48 ± 0.13
